## Screening data, single-dose tests

Each number is a percent effect as filed. The record does not define 0% and 100%; most values in the screen are far below 50% and negative numbers occur (in some assays of this library far below -100). Compounds were drawn at random from those tested, without regard to their results. Two or more numbers in one place are separate tests of the same structure; such repeats can differ widely.

Toxoplasma: 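Assay of Toxoplasma gondii numbers, read through their beta-galactosidase reporter with a colour substrate. Tested at 10 µM. Higher reads as fewer parasites (inferred from which compounds were picked for retests). Size under these conditions: about 67,000 compounds, about 260 of them at 50% or above in at least one test.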
Leishmania in macrophages: 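Cell assay of Leishmania donovani living inside macrophages; the read-out is not stated. Concentration: 30 µM. The record gives no direction; compounds that gave an IC50 in retests scored well above the rest, so higher reads as stronger inhibition. Size under these conditions: about 69,000 compounds, about 1,000 of them at 50% or above in at least one test.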

Result for CN(C)C(=O)N1CCC2(CC1)CCN(c1ncccn1)C2.O=C(O)C(F)(F)F was Toxoplasma: 7.575%; Leishmania in macrophages: -5.199%.
Result for [H][C@]12CC[C@]([H])(C1)N(C(=O)c1cccnc1-c1ccc(OC)nc1)C2 was Toxoplasma: -11.36%; Leishmania in macrophages: -0.1026%.
Result for CN1CC[C@]2(CN(C(=O)c3ccc[nH]3)C[C@H]2c2ccccc2)C1=O was Toxoplasma: 4.409%; Leishmania in macrophages: 10.86% and -6.911%.
Result for O=C(Nc1cnn(Cc2ccc(F)cc2Cl)c1)C1CC1 was Toxoplasma: 5.085%; Leishmania in macrophages: 8.786%.
Result for O=S(=O)(c1cc2ccccc2o1)N1CCCC1 was Toxoplasma: 0.8269%; Leishmania in macrophages: -9.288%.
Result for CN(Cc1ccncc1)Cc1nccn1Cc1ccccc1 was Toxoplasma: 11.68%; Leishmania in macrophages: 12.8%.
Result for CSCC(C)(O)CNc1ccccn1 (centres undefined) was Toxoplasma: -10.38%; Leishmania in macrophages: -19.83%.
Result for CCn1nc(C)c(CN(CCOC)C(=O)c2ccc(=O)[nH]n2)c1C was Toxoplasma: -8.418%; Leishmania in macrophages: 5.281%.
Result for Cc1occc1C(=O)N1Cc2nccn2CC(CN2CCCC2)C1.O=C(O)C(F)(F)F (centres undefined) was Toxoplasma: -13.56%; Leishmania in macrophages: 23.2%.
Result for COc1ccnc(N2CCN(C(=O)c3cscn3)CC2)n1 was Toxoplasma: 1.565%; Leishmania in macrophages: 8.182%.
Result for CC(O)(CNC(=O)c1cccnc1-n1cccn1)c1ccco1 (centres undefined) was Toxoplasma: -11.49%; Leishmania in macrophages: 9.653%.
Result for CC(c1nc(C(C)(C)C)no1)N1CCN(c2ccc(C#N)cn2)CC1 (centres undefined) was Toxoplasma: -13.09%; Leishmania in macrophages: 15.87%.
Result for Cn1ccnc1C1CCCN(C(=O)c2ccncc2F)C1 (centres undefined) was Toxoplasma: -11.52%; Leishmania in macrophages: -7.096%.
Result for Cc1cc(NC(=O)CN2CCC(N3CCNC3=O)CC2)on1 was Toxoplasma: 0.5676%; Leishmania in macrophages: 4.317%.
Result for CN1CCC(Cc2cnc(CNC(=O)Cc3cccc(F)c3)cn2)CC1 was Toxoplasma: -25.52%; Leishmania in macrophages: 18.27%.
Result for N#Cc1ccc(N2CCCC(CO)(CCOc3ccccc3)C2)nc1 (centres undefined) was Toxoplasma: -2.271%; Leishmania in macrophages: 41.64%.
Result for Cn1cc(C(O)CNC(=O)c2cc(Br)ccc2Cl)cn1 (centres undefined) was Toxoplasma: 23.78%; Leishmania in macrophages: -11.55%.
Result for Cc1ccccc1CNc1nc(O)cc(C2CC(=O)N(C)C2)n1 (centres undefined) was Toxoplasma: 3.011%; Leishmania in macrophages: -4.678%.
Result for COc1ccc(NC2(C(=O)N3CCn4cncc4C3)CCCC2)cc1 was Toxoplasma: 11.8%; Leishmania in macrophages: 11.56%.
Result for CC(=O)Nc1ncc(S(=O)(=O)N2CCOCC2)s1 was Toxoplasma: -6.42%; Leishmania in macrophages: 19.34%.
Result for NC(=O)C1(CCCc2ccccn2)CCCN(CCO)C1 (centres undefined) was Toxoplasma: 3.869%; Leishmania in macrophages: 5.341% and 15.84%.
Result for O=C(O)C(F)(F)F.[H][C@@]12C[C@H](C(=O)NC)[C@@]([H])(CN(Cc3ccc(C)cc3)C1)O2 was Toxoplasma: -6.138%; Leishmania in macrophages: 47.12%.
Result for O=C(c1ccccc1N1CCOCC1)N1CCCC1Cn1cccn1 (centres undefined) was Toxoplasma: -0.2316%; Leishmania in macrophages: 14.29%.
Result for COCCN1CCCC1Cn1nc(C)cc1C (centres undefined) was Toxoplasma: -8.015%; Leishmania in macrophages: -5.963%.
Result for COc1ccc(C2OC(COc3ccc(C)cc3)=NN2C(C)=O)cc1 (centres undefined) was Toxoplasma: 14.64%; Leishmania in macrophages: 8.051%.
Result for O=C(c1cccs1)N1CC(Oc2ccccc2Cl)C1 was Toxoplasma: 14.93%; Leishmania in macrophages: 9.308%.
Result for CN(Cc1cccnc1)C1CC2(CCN(Cc3ccccn3)CC2)C1.O=C(O)C(F)(F)F.O=C(O)C(F)(F)F.O=C(O)C(F)(F)F was Toxoplasma: -57.53%; Leishmania in macrophages: 11.31%.
Result for O=C(Nc1nnc(N2CCCCC2)[nH]1)c1cccs1 was Toxoplasma: 2.556%; Leishmania in macrophages: -202.7%.
Result for CNC(=O)c1cc2c(nc1NCC(C)C)CCN(S(=O)(=O)C1CC1)CC2 was Toxoplasma: -0.4785%; Leishmania in macrophages: 34.11%.
Result for Cc1cc(C)n(CC2CCCN2C(=O)CCc2ccco2)n1 (centres undefined) was Toxoplasma: -17.9%; Leishmania in macrophages: 11.03%.
Result for c1cnn(CCNCc2cnc(N3CCOCC3)nc2)c1 was Toxoplasma: -13.2%; Leishmania in macrophages: -11.63%.
Result for CNC(=O)C1(CCCc2ccncc2)CCCN1 (centres undefined) was Toxoplasma: 1.473%; Leishmania in macrophages: 19.09%.
Result for [H][C@]12CC[C@]([H])(CN(c3cnccn3)C1)N(C(=O)Cc1sc(C)nc1C)C2 was Toxoplasma: -13.36%; Leishmania in macrophages: 35.99%.
Result for CCOc1ccccc1N1CCN(CC2(O)CCCNC2)CC1 (centres undefined) was Toxoplasma: -1.308%; Leishmania in macrophages: 12.99%.
Result for Cc1noc(C)c1CC(=O)N1CCCC(n2ccnc2C)C1 (centres undefined) was Toxoplasma: -0.04513%; Leishmania in macrophages: 24.22%.
Result for O=C(C1CCCO1)N1CCCn2c(nnc2Cn2cccc2)C1 (centres undefined) was Toxoplasma: -0.9169%; Leishmania in macrophages: 12.99%.
Result for O=c1cc(CN2CCC(CCc3ccc(O)cc3)CC2)[nH]c(=O)[nH]1 was Toxoplasma: 21.28%; Leishmania in macrophages: 20.62%.
Result for CN(C)C(Cn1ccnc1-c1nccn1C)c1ccccc1Cl (centres undefined) was Toxoplasma: 18.1%; Leishmania in macrophages: -2.849%.
Result for Cc1ccc(CN2CCc3c(nc4cc(C5CC5)nn4c3O)C2)s1 was Toxoplasma: 8.803%; Leishmania in macrophages: -12.5%.
Result for NC(=O)Cn1c(CO)cnc1SCc1ccccc1Cl was Toxoplasma: 4.798%; Leishmania in macrophages: 5.514%.
Result for Cc1nc(C)n(C2CCCN(C(=O)c3sccc3C3CC3)C2)n1 (centres undefined) was Leishmania in macrophages: 10.46%.
Result for Cc1nn(C)c(C)c1C(=O)NCc1ccnc(OCC(F)(F)F)c1 was Toxoplasma: -12.62%; Leishmania in macrophages: 40.75%.
Result for Cc1nc(Cn2c3c(ccc2=O)CCN(CC2CCC2)CC3)cs1.O=C(O)C(F)(F)F.O=C(O)C(F)(F)F was Toxoplasma: -20.01%; Leishmania in macrophages: 13.96%.
Result for CCN(CC)CCNC(=O)c1cnc(C(C)(C)C)s1 was Toxoplasma: 0.3139%; Leishmania in macrophages: 10.1%.
Result for Cc1nc(CN2CCCC23CCN(c2nc4ccccc4s2)CC3)co1 was Toxoplasma: -5.035%; Leishmania in macrophages: 10.91%.
Result for [H][C@]12CC[C@]([H])(CN(Cc3cccnc3)C1)N(C(=O)CSc1nncn1C)C2 was Toxoplasma: 1.441%; Leishmania in macrophages: 35.99%.

The first 3 entries again:

Compound	Toxoplasma	Leishmania in macrophages
CN(C)C(=O)N1CCC2(CC1)CCN(c1ncccn1)C2.O=C(O)C(F)(F)F	7.575%	-5.199%
[H][C@]12CC[C@]([H])(C1)N(C(=O)c1cccnc1-c1ccc(OC)nc1)C2	-11.36%	-0.1026%
CN1CC[C@]2(CN(C(=O)c3ccc[nH]3)C[C@H]2c2ccccc2)C1=O	4.409%	10.86% and -6.911%

Measurements from “University of Dundee, Small-Polar-MMV Screening Library” (2021), ChEMBL document CHEMBL3988442.